# Results as given in patent US9422241B2, “Demethylpenclomedine analogs and their use as anti-cancer agents” (priority 2005, dated 2016).
# The name of at least one read-out is uncertain.
# Test system: mice
# Test: acute IV toxicity in the mouse (single dose)
# Format: in vivo
# Details: estimated as 1/10 the LD10 in mice
# Method: This example describes the toxicity of DM-CHOC-PEN to mice as administered via intravenous injections and oral gavage. For the intravenous study, the dose range-finding phase consisted of five treatment groups (one male mouse/group) that received the test article as a single dose at respective dose levels of 50 (dose volume of 5 mL/kg), 100 (dose volume of 10 mL/kg), 150 (dose volume of 15 mL/kg), 250 (dose volume of 25 mL/kg), and 500 mg/kg (intended total dose volume of 50 mL/kg). The 500 mg/kg dose was intended to be a split dose that was to be administered in equal fractions (25 mL/kg/dose) approximately four hours apart (mortality precluded administration of the second portion of the dose). An additional group (one male mouse) served as the control and received the vehicle, soybean oil, at a dose volume of 25 mL/kg using the same route of administration as the treated groups. On Day 4, following the three-day observation period, all surviving dose range-finding animals were euthanized and discarded. […]
# Observations for mortality, morbidity, and the availability of food and water were conducted twice daily for all animals. […] Body weights were measured on all animals after receipt, prior to randomization and on Day 1. In addition, body weights were measured for all surviving main study phase animals on Days 7 and 14. […]
substance,measurement,value
4-Demethyl cholesteryloxycarbonylpenclomedine [DM-CHOC-PEN],mean toxic dose (MTD) in humans,~39 mg/m^2/d
